Literature values in patent US12176074B2, “Compound function prediction method based on neural network and connectivity map algorithm” (BEIJING GIGACEUTICALS TECH. CO. LTD, priority 2021, dated 2024).
For at least one compound, name, drawing or mass did not settle the structure.

Tested on: nonalcoholic steatohepatitis
Details: specific data in Chinese patent application 201911033194.4

## CC(=O)Nc1cccc(-n2c(=O)n(C3CC3)c(=O)c3c(Nc4ccc(I)cc4F)n(C)c(=O)c(C)c32)c1 [trametinib]
  effect in the treatment of nonalcoholic steatohepatitis: desired effect
